Experimental findings from the supplement of paper PMC12819154, “High-throughput peptide-centric local stability assay extends protein–ligand identification to membrane proteins, tissues and bacteria” (Nature Structural & Molecular Biology, 2025) are described below.

Chains of the proteins cited; added tags and fusions are not shown. Lines headed by an entry give the natural chain unless they say otherwise; changes in a name come on top.
UniProt Q9NRP2: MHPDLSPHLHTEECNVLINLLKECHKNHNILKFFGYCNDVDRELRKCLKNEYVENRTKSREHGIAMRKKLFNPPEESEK
UniProt Q9NVN8: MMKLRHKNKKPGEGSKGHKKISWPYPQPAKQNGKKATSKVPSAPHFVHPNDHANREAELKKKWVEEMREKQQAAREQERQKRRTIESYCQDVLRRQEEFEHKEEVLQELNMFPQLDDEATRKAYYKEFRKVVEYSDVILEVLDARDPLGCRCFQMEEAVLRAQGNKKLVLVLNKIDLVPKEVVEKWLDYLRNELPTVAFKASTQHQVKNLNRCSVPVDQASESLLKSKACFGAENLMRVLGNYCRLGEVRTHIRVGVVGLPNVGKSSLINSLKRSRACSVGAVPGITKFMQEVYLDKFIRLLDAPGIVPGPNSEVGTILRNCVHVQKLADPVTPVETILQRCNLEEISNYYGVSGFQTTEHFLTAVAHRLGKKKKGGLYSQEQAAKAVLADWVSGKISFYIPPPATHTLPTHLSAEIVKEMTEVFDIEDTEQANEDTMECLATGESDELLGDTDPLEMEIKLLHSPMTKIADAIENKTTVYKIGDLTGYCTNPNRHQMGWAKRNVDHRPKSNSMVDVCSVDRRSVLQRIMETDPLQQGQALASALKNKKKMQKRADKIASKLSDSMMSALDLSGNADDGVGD
UniProt Q9NX24: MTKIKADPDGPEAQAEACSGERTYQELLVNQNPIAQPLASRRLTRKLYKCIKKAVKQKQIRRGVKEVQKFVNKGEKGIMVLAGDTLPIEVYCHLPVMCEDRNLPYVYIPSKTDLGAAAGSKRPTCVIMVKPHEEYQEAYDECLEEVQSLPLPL
UniProt Q9NUU7: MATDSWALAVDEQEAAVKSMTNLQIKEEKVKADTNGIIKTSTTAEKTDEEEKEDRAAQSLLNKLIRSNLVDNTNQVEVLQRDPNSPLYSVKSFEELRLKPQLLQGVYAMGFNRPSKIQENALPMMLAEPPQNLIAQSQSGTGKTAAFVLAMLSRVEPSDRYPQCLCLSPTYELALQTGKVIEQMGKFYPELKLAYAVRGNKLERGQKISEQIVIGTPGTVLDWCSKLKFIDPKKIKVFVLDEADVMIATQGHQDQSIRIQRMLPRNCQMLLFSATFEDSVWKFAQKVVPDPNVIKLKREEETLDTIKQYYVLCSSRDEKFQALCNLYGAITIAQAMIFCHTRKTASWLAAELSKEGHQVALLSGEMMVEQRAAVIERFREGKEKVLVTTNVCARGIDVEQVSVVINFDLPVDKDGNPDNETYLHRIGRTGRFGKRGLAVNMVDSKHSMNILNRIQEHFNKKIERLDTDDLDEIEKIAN
UniProt Q9NYY8: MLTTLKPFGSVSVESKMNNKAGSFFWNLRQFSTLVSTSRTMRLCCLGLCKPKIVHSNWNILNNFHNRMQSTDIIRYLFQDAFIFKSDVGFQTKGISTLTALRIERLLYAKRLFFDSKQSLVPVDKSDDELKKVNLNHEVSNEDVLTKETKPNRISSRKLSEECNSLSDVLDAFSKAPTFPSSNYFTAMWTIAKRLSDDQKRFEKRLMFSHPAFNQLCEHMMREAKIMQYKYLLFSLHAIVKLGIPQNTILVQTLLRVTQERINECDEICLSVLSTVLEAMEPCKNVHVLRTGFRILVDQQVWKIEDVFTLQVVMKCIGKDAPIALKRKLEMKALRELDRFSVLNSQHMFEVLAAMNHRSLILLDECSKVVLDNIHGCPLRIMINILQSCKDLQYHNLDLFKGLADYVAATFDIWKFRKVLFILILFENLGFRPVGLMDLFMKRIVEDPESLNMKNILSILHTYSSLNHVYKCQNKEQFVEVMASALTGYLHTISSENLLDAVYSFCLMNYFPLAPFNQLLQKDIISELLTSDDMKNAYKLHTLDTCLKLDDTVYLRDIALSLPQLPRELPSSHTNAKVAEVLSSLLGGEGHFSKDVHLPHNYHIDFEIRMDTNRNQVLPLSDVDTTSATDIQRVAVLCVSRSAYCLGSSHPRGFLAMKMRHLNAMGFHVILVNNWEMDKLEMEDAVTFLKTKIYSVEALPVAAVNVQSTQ
UniProt Q9NWS6: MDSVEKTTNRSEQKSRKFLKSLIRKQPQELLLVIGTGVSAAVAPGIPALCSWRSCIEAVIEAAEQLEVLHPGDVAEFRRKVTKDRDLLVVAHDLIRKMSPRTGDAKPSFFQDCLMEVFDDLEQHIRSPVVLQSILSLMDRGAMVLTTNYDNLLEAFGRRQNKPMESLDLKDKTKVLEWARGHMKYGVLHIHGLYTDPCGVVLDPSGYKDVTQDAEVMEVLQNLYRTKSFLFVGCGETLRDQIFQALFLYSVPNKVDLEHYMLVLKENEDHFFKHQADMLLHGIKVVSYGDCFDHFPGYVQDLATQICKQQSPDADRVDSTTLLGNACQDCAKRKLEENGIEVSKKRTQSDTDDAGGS
UniProt Q9NSP4: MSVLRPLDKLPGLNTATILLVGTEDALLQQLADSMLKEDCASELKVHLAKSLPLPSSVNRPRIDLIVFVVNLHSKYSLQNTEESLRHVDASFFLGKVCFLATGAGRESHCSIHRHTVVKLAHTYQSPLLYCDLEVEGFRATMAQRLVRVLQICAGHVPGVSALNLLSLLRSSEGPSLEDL
UniProt Q9NR45: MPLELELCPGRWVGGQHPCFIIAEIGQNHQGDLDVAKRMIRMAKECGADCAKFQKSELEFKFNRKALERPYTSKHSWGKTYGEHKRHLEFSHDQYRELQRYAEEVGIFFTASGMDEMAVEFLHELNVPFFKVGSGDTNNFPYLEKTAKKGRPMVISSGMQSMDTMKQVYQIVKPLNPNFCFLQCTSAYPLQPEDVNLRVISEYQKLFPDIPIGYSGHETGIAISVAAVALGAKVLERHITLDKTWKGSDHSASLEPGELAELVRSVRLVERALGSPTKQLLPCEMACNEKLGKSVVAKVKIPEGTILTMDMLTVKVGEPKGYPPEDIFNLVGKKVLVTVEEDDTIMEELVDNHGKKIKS
UniProt Q9NX76: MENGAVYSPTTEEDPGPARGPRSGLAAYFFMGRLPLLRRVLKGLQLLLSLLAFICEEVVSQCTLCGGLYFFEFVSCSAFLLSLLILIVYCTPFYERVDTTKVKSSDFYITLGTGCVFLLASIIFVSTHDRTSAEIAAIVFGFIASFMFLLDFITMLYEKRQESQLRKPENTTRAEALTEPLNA

The other results are listed elsewhere or left out. Most entries show no effect beyond the scatter of the controls.

Compound in the test: CN[C@@H]1C[C@H]2O[C@@](C)([C@@H]1OC)n1c3ccccc3c3c4c(c5c6ccccc6n2c5c31)C(=O)NC4 [staurosporine]
Kind of test: log2 fold change of tryptic peptide abundance, ligand vs vehicle (limited proteolysis) (log2 ratio); higher = more trypsin-susceptible (destabilized). The following applies: ligand concentration: 20 uM; sample: K562 cleared lysate; digestion: 4 min, 22 C (HT-PELSA RT4min, Orbitrap Astral).
“UniProt Q9NRP2 (peptide sequence: KLFNPPEESEK, peptide start residue: 69)”: the log2 fold change is -0.188.
Consider “GNL3L (peptide sequence: ISFYIPPPATHTLPTHLSAEIVK, peptide start residue: 397) (UniProt Q9NVN8)”, for which the log2 fold change was 0.3.
For “SH2B1 (peptide sequence: AAQLVLTGGTGSHGVFLVR, peptide start residue: 537) (UniProt Q9NRF2)”, the log2 fold change was -0.242.
The result for “NHP2 (peptide sequence: ADPDGPEAQAEACSGER, peptide start residue: 6) (UniProt Q9NX24)” reads -0.196; that for “DDX19A (peptide sequence: VKADTNGIIK, peptide start residue: 30) (UniProt Q9NUU7)”, -0.106.
The result for “FASTKD2 (peptide sequence: QSLVPVDKSDDELK, peptide start residue: 118) (UniProt Q9NYY8)” reads -0.313; that for “FAM118A (peptide sequence: DRDLLVVAHDLIRK, peptide start residue: 84) (UniProt Q9NWS6)”, 0.786.
As for “CENPM (peptide sequence: VCFLATGAGR, peptide start residue: 97) (UniProt Q9NSP4)”, the figure is 0.207; as for “NANS (peptide sequence: IPEGTILTMDMLTVK, peptide start residue: 301) (UniProt Q9NR45)”, 0.545.
For “CMTM6 (peptide sequence: AEALTEPLNA, peptide start residue: 174) (UniProt Q9NX76)”, the log2 fold change is -0.042.
